# Measurements taken from paper PMC8822587 (ACS infectious diseases, 2021).
# What was measured:
# [1] = tested on: P. falciparum 3D7; test: SYBR Green I fluorescence antiplasmodial assay, 3D7; assay type: cell-based; settings: Plasmodium falciparum, 3D7, 72 h, read-out: 3D7 EC50
# [2] = tested on: P. falciparum strain Dd2; test: SYBR Green I fluorescence antiplasmodial assay, Dd2; assay type: cell-based; settings: Plasmodium falciparum, DD2, read-out: Dd2 EC50 (unit inferred)
smiles,measurement,setting,value
"O=C(CCCCCCC(=O)Nc1ccccc1)NO [SAHA, suberanilohydroxamic acid]",EC50,[1],160 ± 30 nM
same,EC50,[2],100 ± 20 nM
